Source: publication doi:10.1101/2021.01.08.425994
No constants are given. Whether binding was seen depends on the method and setting. In cells and extracts the contact can be indirect. Some entries that bind do so weakly or less than the wild type.

Sequences of proteins named here, by UniProt entry; tags and fusion partners are left off. A change or cut given only in a name is not applied to a line headed by its entry.
UniProt O08785: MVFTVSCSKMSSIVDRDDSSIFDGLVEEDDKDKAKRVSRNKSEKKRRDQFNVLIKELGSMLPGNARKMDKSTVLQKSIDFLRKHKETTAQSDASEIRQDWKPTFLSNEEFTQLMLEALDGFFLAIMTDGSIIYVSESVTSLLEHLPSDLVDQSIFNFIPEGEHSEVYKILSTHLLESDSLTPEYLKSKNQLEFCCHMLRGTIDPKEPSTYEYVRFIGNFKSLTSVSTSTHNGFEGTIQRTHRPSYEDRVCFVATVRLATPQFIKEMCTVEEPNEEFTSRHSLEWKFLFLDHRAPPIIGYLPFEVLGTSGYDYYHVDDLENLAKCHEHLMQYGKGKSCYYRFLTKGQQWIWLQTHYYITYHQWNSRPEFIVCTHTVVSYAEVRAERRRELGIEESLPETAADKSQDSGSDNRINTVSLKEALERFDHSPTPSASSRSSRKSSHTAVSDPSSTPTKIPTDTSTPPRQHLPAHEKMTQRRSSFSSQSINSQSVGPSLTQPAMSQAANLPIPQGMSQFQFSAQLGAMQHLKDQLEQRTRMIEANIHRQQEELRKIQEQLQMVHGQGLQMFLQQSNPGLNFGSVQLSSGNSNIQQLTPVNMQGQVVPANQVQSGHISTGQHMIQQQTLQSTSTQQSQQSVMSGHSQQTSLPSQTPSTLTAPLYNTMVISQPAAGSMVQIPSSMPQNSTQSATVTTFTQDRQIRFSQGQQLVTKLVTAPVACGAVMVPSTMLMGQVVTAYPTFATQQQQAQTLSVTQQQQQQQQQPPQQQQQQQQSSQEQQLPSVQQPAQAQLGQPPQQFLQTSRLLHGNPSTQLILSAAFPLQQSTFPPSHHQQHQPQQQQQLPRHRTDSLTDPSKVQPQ

Biological target: CLOCK:BMAL1 heterodimer (overexpressed) (not stated | mouse) (UniProt O08785)
Assay: co-IP

B1: human CRY1 wildtype (protein, UniProt Q16526 1-586)
chain: MGVNAVHWFRKGLRLHDNPALKECIQGADTIRCVYILDPWFAGSSNVGINRWRFLLQCLEDLDANLRKLNSRLFVIRGQPADVFPRLFKEWNITKLSIEYDSEPFGKERDAAIKKLATEAGVEVIVRISHTLYDLDKIIELNGGQPPLTYKRFQTLISKMEPLEIPVETITSEVIEKCTTPLSDDHDEKYGVPSLEELGFDTDGLSSAVWPGGETEALTRLERHLERKAWVANFERPRMNANSLLASPTGLSPYLRFGCLSCRLFYFKLTDLYKKVKKNSSPPLSLYGQLLWREFFYTAATNNPRFDKMEGNPICVQIPWDKNPEALAKWAEGRTGFPWIDAIMTQLRQEGWIHHLARHAVACFLTRGDLWISWEEGMKVFEELLLDADWSINAGSWMWLSCSSFFQQFFHCYCPVGFGRRTDPNGDYIRRYLPVLRGFPAKYIYDPWNAPEGIQKVAKCLIGVNYPKPMVNHAEASRLNIERMKQIYQQLSRYRGLGLLASVPSNPNGNGGFMGYSAENIPGCSSSGSCSQGSGILHYAHGDSQQTHLLKQGRSSMGTGLSGGKRPSQEEDTQSIGPKVQRQSTN
For B1, the binding was “binds”.
